Laboratory results published in PMC7862700.
The entries are a selection whose mix differs from that of the whole data set. For part of these data: At the low end of the ranking the order means little. The list shows a part of the results. For part of these data: The exact form of the protein is not confirmed.

By UniProt entry, the sequences of proteins in these tests, tags left out. Where a name states a change or a piece, a line headed by the entry shows the natural chain unless it says otherwise.
UniProt Q00613: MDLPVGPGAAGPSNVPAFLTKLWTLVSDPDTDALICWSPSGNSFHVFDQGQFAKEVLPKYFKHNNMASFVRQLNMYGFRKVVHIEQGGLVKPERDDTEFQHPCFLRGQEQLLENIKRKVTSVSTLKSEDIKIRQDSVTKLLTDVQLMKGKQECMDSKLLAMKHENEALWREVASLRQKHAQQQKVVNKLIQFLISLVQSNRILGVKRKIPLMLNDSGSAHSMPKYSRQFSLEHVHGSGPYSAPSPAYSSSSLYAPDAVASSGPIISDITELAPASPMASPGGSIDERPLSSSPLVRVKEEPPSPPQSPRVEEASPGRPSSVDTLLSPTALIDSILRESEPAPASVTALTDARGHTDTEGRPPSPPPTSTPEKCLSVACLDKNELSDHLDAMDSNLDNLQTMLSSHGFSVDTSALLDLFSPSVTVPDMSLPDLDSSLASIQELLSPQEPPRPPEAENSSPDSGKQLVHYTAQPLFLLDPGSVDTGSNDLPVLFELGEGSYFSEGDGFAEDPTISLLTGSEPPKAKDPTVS

Tests used:
HSF1 = HSF1 (UniProt Q00613); test: DAPPL (digital affinity profiling via proximity ligation, sequencing); details: 10 mM Tris-HCl pH 7.5, 50 mM NaCl, 1 mM DTT, 4% glycerol, room temperature, 30 min; GST-TFs on glutathione beads, 16-mer random dsDNA library, 0.1% …; high values mean tight binding; double strand, one strand shown; scale: fold enrichment (6-mer frequency, TF over GST control)
ELF2 = molecular target: T1, ELF2 (UniProt Q15723); test: as above; details: 10 mM Tris-HCl pH 7.5, 50 mM NaCl, 1 mM DTT, 4% glycerol, room temperature, 30 min; GST-TFs on glutathione beads, 16-mer random dsDNA library, 0.1% …; high values mean tight binding; double strand, one strand shown; scale: fold enrichment (6-mer frequency, TF over GST control)
T1 sequence: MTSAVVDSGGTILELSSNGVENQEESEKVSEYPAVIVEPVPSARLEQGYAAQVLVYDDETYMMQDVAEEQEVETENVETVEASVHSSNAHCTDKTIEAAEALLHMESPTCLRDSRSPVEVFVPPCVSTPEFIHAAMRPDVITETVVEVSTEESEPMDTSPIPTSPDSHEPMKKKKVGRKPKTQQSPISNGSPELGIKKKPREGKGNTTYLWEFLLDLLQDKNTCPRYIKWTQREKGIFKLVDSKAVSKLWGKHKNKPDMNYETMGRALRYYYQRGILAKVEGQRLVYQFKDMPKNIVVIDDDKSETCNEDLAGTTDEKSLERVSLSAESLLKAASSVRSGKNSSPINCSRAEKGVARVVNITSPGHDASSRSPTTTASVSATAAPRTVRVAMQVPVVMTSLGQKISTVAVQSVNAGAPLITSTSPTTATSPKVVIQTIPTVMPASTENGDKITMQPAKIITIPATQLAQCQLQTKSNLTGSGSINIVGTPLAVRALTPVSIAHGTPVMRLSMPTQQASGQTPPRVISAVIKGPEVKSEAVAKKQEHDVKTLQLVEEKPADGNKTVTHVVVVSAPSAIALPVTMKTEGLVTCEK

| Sequence | binding signal (HSF1) | binding signal (ELF2) |
| --- | --- | --- |
| GTCTGA | 0.676 | 0.753 |
| GGTGGC | 0.518 | 0.718 |
| ATTGGA | 0.954 | 0.882 |
| GCAAGG | 0.657 | 0.794 |
| AAACGT | 0.884 | 0.937 |
| GCCAGG | 0.373 | 0.468 |
| GAGGAG | 0.209 | 0.213 |
| GGGCGC | 0.445 | 0.568 |
| CGGTCC | 0.602 | 0.935 |
| GGCCAT | 0.701 | 0.8 |
| GGCCGG | 0.396 | 0.567 |
| GAGGCT | 0.626 | 0.617 |
| AACAGT | 0.624 | 0.679 |
| GTAAGA | 0.885 | 0.773 |
| GAGCGC | 0.457 | 0.573 |
| TCGGCG | 0.502 | 0.5 |
| AACCGT | 0.49 | 0.494 |
| GAGGGG | 0.438 | 0.473 |
| AGATAG | 0.911 | 0.797 |
| AGAGCG | 0.418 | 0.458 |
| ATCCAG | 1.53 | 0.878 |
| AGACAA | 0.79 | 0.791 |
| ACGAGT | 0.717 | 0.707 |
| GGACGG | 0.407 | 0.489 |

| Sequence | binding signal (HSF1) | binding signal (ELF2) |
| --- | --- | --- |
| TGTCGG | 0.295 | 0.337 |
| CTCGGA | 0.894 | 0.817 |
| GCGTGT | 0.482 | 0.542 |
| TGGGGG | 0.616 | 0.714 |
| CGGTCA | 0.607 | 0.773 |
| CGGTTG | 0.561 | 0.793 |
| GTGCAG | 0.582 | 0.712 |
| GTTAGT | 0.773 | 0.788 |
| CAGTCT | 0.774 | 0.697 |
| GATGAG | 0.748 | 0.775 |
| CGGGTG | 0.508 | 0.693 |
| GGTTGC | 0.649 | 0.89 |
| CGGCAG | 0.658 | 0.812 |
| GTGCGT | 0.49 | 0.592 |
| GGGGGA | 0.548 | 0.538 |
| ACAGAG | 0.678 | 0.722 |
| CAGGAG | 0.247 | 0.253 |
| TCAGGG | 0.827 | 0.792 |
| CGGAGA | 0.22 | 0.212 |
| GTTGTG | 0.711 | 0.88 |
| TGAGCG | 0.57 | 0.61 |
| CGGTCG | 0.311 | 0.397 |
| ATCGTG | 0.415 | 0.393 |
| GAGATT | 1.25 | 0.715 |

| Sequence | binding signal (HSF1) | binding signal (ELF2) |
| --- | --- | --- |
| GGGGGC | 0.464 | 0.582 |
| GCATAA | 0.899 | 0.854 |
| AGTCTG | 0.596 | 0.584 |
| GCAGTG | 0.447 | 0.524 |
| GGGTCG | 0.475 | 0.571 |
| GCCAGT | 0.295 | 0.302 |
| CGAGGC | 0.648 | 0.626 |
| AGAGGA | 0.618 | 0.672 |
| CCGGAG | 0.427 | 0.535 |
| AGACCC | 0.634 | 0.73 |
| AGGCAG | 0.465 | 0.539 |
| GCCACG | 0.785 | 0.91 |
| GTGTGC | 0.634 | 0.885 |
| GGGCCG | 0.461 | 0.58 |
| GGGTTA | 0.798 | 0.819 |
| GGCACA | 0.62 | 0.786 |
| CGGAGG | 0.225 | 0.272 |
| CATAGG | 0.667 | 0.748 |
| CGTGCA | 0.553 | 0.659 |
| GTGAGT | 0.138 | 0.125 |
| GCAGTC | 0.367 | 0.45 |
| GCGCAG | 0.708 | 0.763 |
| AGGTGC | 0.585 | 0.637 |
| ATGAGT | 0.612 | 0.653 |

| Sequence | binding signal (HSF1) | binding signal (ELF2) |
| --- | --- | --- |
| TGGGGA | 0.789 | 0.77 |
| GGACTA | 0.935 | 0.822 |
| GAGCTA | 0.948 | 0.839 |
| CGAGAG | 0.59 | 0.387 |
| GTGGGG | 0.487 | 0.551 |
| GTCGGT | 0.218 | 0.265 |
| GAGCGT | 0.337 | 0.348 |
| GAGCGA | 0.617 | 0.606 |
| CCTAGT | 0.916 | 0.905 |
| GGAGTG | 0.319 | 0.388 |
| CAAGAC | 0.749 | 0.833 |
| GAGAAC | 0.752 | 0.402 |
| ACCGAG | 0.854 | 0.721 |
| GGTCGG | 0.199 | 0.264 |
| ACAACG | 0.743 | 0.925 |
| CCATGT | 0.663 | 0.769 |
| GGCCGT | 0.346 | 0.378 |
| GGCGCG | 0.536 | 0.649 |
| GACGAA | 0.935 | 0.858 |
| CGTGTC | 0.6 | 0.762 |
| CAAGGA | 0.711 | 0.791 |
| GACCCG | 0.619 | 0.967 |
| GGAGAC | 0.137 | 0.144 |
| GGCCGA | 0.675 | 0.679 |

| Sequence | binding signal (HSF1) | binding signal (ELF2) |
| --- | --- | --- |
| CCGTCG | 0.79 | 0.737 |
| AAGACG | 0.821 | 0.802 |
| GTGATA | 0.647 | 0.664 |
| GCGCTG | 0.681 | 0.813 |
| AGGGTC | 0.749 | 0.811 |
| GATTGA | 0.935 | 0.934 |
| AGCGAG | 0.627 | 0.611 |
| TGGAGT | 0.488 | 0.506 |
| TCGGCA | 0.624 | 0.672 |
| GACGTA | 0.631 | 0.723 |
| GACTAG | 0.991 | 0.721 |
| GACAGG | 0.427 | 0.571 |
| CGGCGC | 0.531 | 0.6 |
| GGACGA | 0.627 | 0.605 |
| TGCCGT | 0.727 | 0.791 |
| ACTGAG | 0.734 | 0.737 |
| CCAGCC | 0.721 | 0.73 |
| CCAGGG | 0.594 | 0.595 |
| TCGGGT | 0.631 | 0.56 |
| TCGTGG | 0.706 | 0.687 |
| AAGACA | 0.908 | 0.98 |
| CGCGAG | 0.584 | 0.505 |
| GTAAAG | 0.942 | 0.87 |
| GACAGA | 0.698 | 0.62 |

Reformatted: entries from further up
CAGGAG
  binding signal (HSF1): 0.247
  binding signal (ELF2): 0.253
TCAGGG
  binding signal (HSF1): 0.827
  binding signal (ELF2): 0.792
CGGAGA
  binding signal (HSF1): 0.22
  binding signal (ELF2): 0.212
GTTGTG
  binding signal (HSF1): 0.711
  binding signal (ELF2): 0.88
